# The campaign covered roughly 1,600 compounds. About 55 (3%) were called active. Inconclusive results (about 10%) are left out. The call rests on the fitted dose curve; in most records, active means well fitted inhibition curve with a large enough effect; inconclusive means small, poorly fitted or top-dose-only effect; inactive means no such curve, though single readings can be large or run the other way. The entries are a selection whose mix differs from that of the whole data set.
# Assay: qHTS for Inhibitors of TGF-b: Hit Validation in HepG2 Cells using COP promoter;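 further: 0% = TGF-beta stimulated DMSO wells and -100% = unstimulated cell wells; nearly all actives have a fitted effect of over 70% in size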
# Conditions: HepG2 COP-GFP TGF-b reporter, GFP fluorescence, 18 h, cells stimulated by added recombinant TGF-beta; at 46.1 µM (top of the series)
# Source text: TGF-b is a main component in the TGF-b signaling pathway which plays diverse roles in cellular and development pathways. TGF-b is the mediated by the transcription factors Smads. Although the Smad-dependent pathway is the primary canonical TGF-b signaling node, TGF-b1 can also activate alternative signaling pathways, including those involving MAPK (ERK, JNK and p38). This interaction may mediate or enhance Smad-dependent responses, or can exert Smad-independent effects. The complexity of this signaling cascade allows the TGF-b superfamily to perform unique, overlapping or redundant functions. We believe that targeting the TGF-beta pathway at the Smad-transcription factor level may eliminate the consequences of disrupting the entire pathway and offer specificity without affecting other signaling pathways. Smad3 is the primary transducer of TGF-b's signals and Smad3 regulates many functions attributed to TGF-b signaling. We hypothesize that Smad3 inhibitors will selectively eliminate Smad3-specific TGF-beta signals without undesired off-target effects. We aim to identify Smad3-small molecule antagonists using a quantitative high throughput screening (qHTS) approach. […]
# Suspensions of trypsinized HEPG2 COP-GFP cells were dispensed into white, tissue culture-treated, solid 1536-well plates at 5uL/well (1000 cells/well final concentration) in DMEM medium supplemented with 1% FBS. […] The plates were measured on an Acumen eX3 Explorer plate reader for GFP fluorescence (ex488/em500-530). GFP values were calculated by determining the mean GFP fluorescence of individual cells, and compiling these values for each well to determine a total well GFP signal. The %Activity was determined from the corrected fluorescence values. […] Concentration-response curves were fitted to the signals arising from the resulting fluorescence. The concentration-effect curves were then classified based on curve quality (r2), response magnitude and degree of measured activity, and compounds were subsequently categorized based on their curve class.
row,SMILES,"activity, negative = inhibition"
1,O=Cc1cn(Cc2ccc(F)cc2Cl)c2ccccc12,inactive: -17.1%
2,CCC(C)(O)C(=O)OC1C(=O)OC2CC3C(C)=CC(=O)C(O)C3(C)C3C4(O)OCC23C1C(C)C4O (stereo not drawn),inactive: 0.785%
3,COC(=O)C1=C(c2cc3ccccc3o2)C[C@@H]2CC[C@H]1N2C(=O)NC1CCCCC1,inactive: 17.2%
